Results on one molecule are retold here after PMC12284064.

Protein sequences, listed by entry. Tags and fused reporters are not part of them.
UniProt Q9BPZ7: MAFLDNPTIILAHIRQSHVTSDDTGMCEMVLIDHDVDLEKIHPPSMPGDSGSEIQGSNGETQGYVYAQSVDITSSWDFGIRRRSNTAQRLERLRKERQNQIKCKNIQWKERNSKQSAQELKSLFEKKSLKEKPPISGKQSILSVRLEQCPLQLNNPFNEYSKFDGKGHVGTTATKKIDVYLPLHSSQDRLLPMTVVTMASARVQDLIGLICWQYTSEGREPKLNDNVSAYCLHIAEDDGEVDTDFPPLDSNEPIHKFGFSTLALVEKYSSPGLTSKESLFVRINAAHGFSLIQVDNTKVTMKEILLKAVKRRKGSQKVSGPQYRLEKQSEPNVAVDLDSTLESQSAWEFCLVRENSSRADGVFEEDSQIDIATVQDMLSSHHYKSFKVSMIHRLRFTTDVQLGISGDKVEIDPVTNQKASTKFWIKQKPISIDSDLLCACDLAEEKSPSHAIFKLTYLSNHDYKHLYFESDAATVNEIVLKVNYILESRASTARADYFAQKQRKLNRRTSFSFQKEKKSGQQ

These are yes or no findings as the source states them, for the method shown. Binding seen in cells or lysates may run through a third protein. Here binding means that the protein was enriched with, or labelled near, the bait; the list need not be complete.

The test concerns the target Flag-S-SIN1 (UniProt Q9BPZ7). In words: affinity purification with mass spectrometry; tandem affinity purification (anti-Flag affinity gel, 3xFlag peptide elution, then S-protein agarose) from PANC-1 cells expressing Flag-S-SIN1 or Flag-S-USP33; MG132 10 uM 10 h; NETN buffer pH 8.0, 300 mM NaCl, 0.5% NP-40; LC-MS/MS.

B1: ubiquitin-specific protease 33 (USP33), endogenous (enzyme, UniProt Q8TEY7 1-942)
chain: MTGSNSHITILTLKVLPHFESLGKQEKIPNKMSAFRNHCPHLDSVGEITKEDLIQKSLGTCQDCKVQGPNLWACLENRCSYVGCGESQVDHSTIHSQETKHYLTVNLTTLRVWCYACSKEVFLDRKLGTQPSLPHVRQPHQIQENSVQDFKIPSNTTLKTPLVAVFDDLDIEADEEDELRARGLTGLKNIGNTCYMNAALQALSNCPPLTQFFLDCGGLARTDKKPAICKSYLKLMTELWHKSRPGSVVPTTLFQGIKTVNPTFRGYSQQDAQEFLRCLMDLLHEELKEQVMEVEEDPQTITTEETMEEDKSQSDVDFQSCESCSNSDRAENENGSRCFSEDNNETTMLIQDDENNSEMSKDWQKEKMCNKINKVNSEGEFDKDRDSISETVDLNNQETVKVQIHSRASEYITDVHSNDLSTPQILPSNEGVNPRLSASPPKSGNLWPGLAPPHKKAQSASPKRKKQHKKYRSVISDIFDGTIISSVQCLTCDRVSVTLETFQDLSLPIPGKEDLAKLHSSSHPTSIVKAGSCGEAYAPQGWIAFFMEYVKRFVVSCVPSWFWGPVVTLQDCLAAFFARDELKGDNMYSCEKCKKLRNGVKFCKVQNFPEILCIHLKRFRHELMFSTKISTHVSFPLEGLDLQPFLAKDSPAQIVTYDLLSVICHHGTASSGHYIAYCRNNLNNLWYEFDDQSVTEVSESTVQNAEAYVLFYRKSSEEAQKERRRISNLLNIMEPSLLQFYISRQWLNKFKTFAEPGPISNNDFLCIHGGVPPRKAGYIEDLVLMLPQNIWDNLYSRYGGGPAVNHLYICHTCQIEAEKIEKRRKTELEIFIRLNRAFQKEDSPATFYCISMQWFREWESFVKGKDGDPPGPIDNTKIAVTKCGNVMLRQGADSGQISEETWNFLQSIYGGGPEVILRPPVVHVDPDILQAEEKIEVETRSL
As for B1, the binding result is “binds”.
